Experimental data: patent EP4806900A2, “RAS INHIBITORS” (Revolution Medicines, Inc., priority 2019, dated 2021)
A number of entries come with more than one value. The other results are left out here. The source may hold further records. Values that stand side by side differ, and nothing given here explains why; dose, time, organism, isomer or construct need not be as stated for each record.

Tested on: NCI-H358 (K-Ras G12C)
Experiment: CellTiter-Glo cell viability assay, NCI-H358
Type: cell-based, human
Conditions: read-out: H358 Cell Viability assay data (K-Ras G12C, IC50); Table 5

C=CC(=O)N1CCC2(CC1)CCN([C@H](C(=O)N[C@H]1Cc3cc(O)cc(c3)-c3ccc4c(c3)c(c(-c3ccccc3CCOC)n4CC)CC(C)(C)COC(=O)[C@@H]3CCCN(N3)C1=O)C(C)C)C2=O
IC50: 100 nM to 1 µM and > 1 µM

CCn1c(-c2cccnc2COC)c2c3cc(ccc31)-c1cc(O)cc(c1)CC(NC(=O)C(C(C)C)N(C)C(=O)C1CCN(C(=O)C#CC3CCCN3C)C1)C(=O)N1CCCC(N1)C(=O)OCC(C)(C)C2 (stereo not shown)
IC50: < 10 nM and 100 nM to 1 µM

C=CC(=O)N1CC[C@H](C(=O)N(C)[C@H](C(=O)N[C@H]2Cc3cc(O)cc(c3)-c3ccc4c(c3)c(c(-c3ccccc3CCOC)n4CC)C[C@H](C)COC(=O)[C@@H]3CCCN(N3)C2=O)C(C)C)C1
IC50: 100 nM to 1 µM and > 1 µM

CCn1c(-c2cccnc2COC)c2c3cc(ccc31)-c1cc(O)cc(c1)C[C@H](NC(=O)[C@H](C(C)C)N(C)C(=O)[C@H]1CCN(C(=O)C#CCN3[C@@H](C)COC[C@@H]3C)C1)C(=O)N1CCC[C@H](N1)C(=O)OCC(C)(C)C2
IC50: 10 nM to 100 nM and 100 nM to 1 µM

CC#CC(=O)N1CC[C@H](C(=O)N(C)[C@H](C(=O)N[C@H]2Cc3cc(O)cc(c3)-c3ccc4c(c3)c(c(-c3ccccc3CCOC)n4CC)CC(C)(C)COC(=O)[C@@H]3CCCN(N3)C2=O)C(C)C)C1
IC50: 100 nM to 1 µM and > 1 µM

CCn1c(-c2cccnc2COC)c2c3cc(ccc31)-c1cc(O)cc(c1)C[C@H](NC(=O)[C@H](C(C)C)N(C)C(=O)[C@H]1CCN(C(=O)C#CC3(N(C)C)COC3)C1)C(=O)N1CCC[C@H](N1)C(=O)OCC(C)(C)C2
IC50: 10 nM to 100 nM and 100 nM to 1 µM

CCn1c(-c2cccnc2[C@H](C)OC)c2c3cc(ccc31)-c1cc(O)cc(c1)C[C@H](NC(=O)[C@H](C(C)C)N(C)C(=O)c1ccc(NC(=O)/C=C/CN(C)C)cn1)C(=O)N1CCC[C@H](N1)C(=O)OCC(C)(C)C2
IC50: 10 nM to 100 nM and 100 nM to 1 µM
